Measured values reported in patent US4551479A, “Compounds with anti-convulsive properties” (Akzo N.V., priority 1983, dated 1985).

Tests used:
[1] = Shuttle box (neurotoxicity and sedation); conditions: ip
[2] = Rotarod (neurotoxicity and sedation); conditions: ip

## CN1C(=O)CN=C(c2ccccc2)c2cc(Cl)ccc21 [diazepam]
[1]
  TD50: 8 mg/kg
[2]
  TD50: 1.3 mg/kg
